The data set is described as follows: general procedure: solution-phase peptide synthesis; DCC/HOBt.

For “N-Phenoxyacetyl-L-leucyl-(3S,4S)-statyl-L-valyl-L-phenylalanine methyl ester”, the step yield result (late stage modification step) was “about 70% yield”.
The substance Boc-Leu-(3S,4S)-Sta-Val-Phe-OMe yielded a step yield (coupling step) of 83% yield.
Same read-out and setting: under Boc-Leu-(3S,4S)-AHPPA-Leu-Phe-OMe stands 87% yield.
Regarding “N-Phenoxyacetyl-L-leucyl-4(S)-amino-3(S)-hydroxy-5-phenylpentanoyl-L-leucyl-L-phenylalanine methyl ester”, the step yield (late stage modification step) turned out to be 82% yield.
Consider “N-Phenoxyacetyl-L-leucyl-(3S,4S)-statyl-L-leucyl-L-phenylalanine methyl ester”, for which, where the note is “late stage modification step”, the step yield turned out to be 73% yield.

The record behind these values is US4384994A (Merck & Co., Inc., priority 1981, dated 1983).
